The campaign covered roughly 360,000 compounds. About 7,500 (2.1%) were called active. The shares of active, inactive and inconclusive entries below differ from those in the screen. Calls follow the shape of the dose curve; as a rule, active = well fitted inhibition curve with a large enough effect; inconclusive = small, poorly fitted or top-dose-only effect, or effect the other way; inactive = flat fitted curve, though single readings scatter. Potencies of inconclusive entries are doubtful fits and often do not repeat.
Test: Nrf2 qHTS screen for inhibitors; also: nearly all actives have a fitted effect of over 60% in size
Conditions: A549 ARE-Fluc reporter, luciferase luminescence, 18-24 h; activity change, negative = inhibition: at 46 µM (top of the series)
In short: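 Nrf2 activity is the BugLite luminescence, read 15 min after reagent at room temperature, following CellTiter-Fluor cytotoxicity readout (30 min, 37C). Compound titrations were applied for 18-24 h to 5000 A549 ARE_Fluc cells/well in 5% FBS OPTI-MEM.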
% is scaled to controls: 0 for no effect and ±100 for the full control effect; potency is read from the fitted curve at half-maximal effect.

SMILES	Potency	activity change, negative = inhibition
Cc1ccc(OCC(=O)Nc2ccc(F)cc2)c([N+](=O)[O-])n1	inconclusive: 16.4 µM [activator, partial curve]	–
CCOc1ccc(CN(C)C(=O)[C@H](Cc2ccccc2)NC(=O)OCc2ccccc2)cc1OC	active: 20.6 µM	–
O=C(c1ccc(Cl)c([N+](=O)[O-])c1)N1CCN(S(=O)(=O)c2ccc(Cl)cc2)CC1	inconclusive: 29.1 µM [falling, single point]	–
Cc1ccnc(NC(=O)CCC(=O)c2cccs2)c1	inconclusive: 11.6 µM [falling, single point]	–
COc1ccc(C(=O)NC(=S)Nc2ccccc2F)cc1	inconclusive: 18.4 µM [activator, partial curve]	–
COC(=O)CCCNC(=O)c1ccc2oc(CCCc3ccccc3)nc2c1	inconclusive: 25.9 µM [activator, single point]	–
O=C(CCS(=O)(=O)c1cc2c(cc1Cl)NC(=O)CO2)NCCc1ccc(Cl)cc1	inconclusive: 18.4 µM [activator, single point]	–
Cc1ccc(C2CC(c3cccs3)=NN2C(=O)CSC2=NN3CCCC(=O)N=C3S2)cc1 (stereo not drawn)	–	inactive: -24%
O=c1[nH]c(SCc2ccccc2Cl)nc2c1cnn2-c1ccccc1	inconclusive: 25.9 µM [falling, single point]	–
Cn1c(=NC(=O)c2ccco2)sc2cccc(F)c21	inconclusive: 1.64 µM [activator, full curve]	–
CCCCC12CN3CC(C)(CN(C1)C31C(=O)N(C)c3ccc(C)cc31)C2=O (stereo not drawn)	–	inactive: 18.5%
COc1ccc2[nH]cc(C(=O)CNc3nc(C)cs3)c2c1	inconclusive: 23.1 µM [activator, single point]	–
COc1c(N2CCN(C(=S)NCc3ccccc3)C(C)C2)c(F)cc2c(=O)c(C(=O)O)cn(C3CC3)c12 (stereo not drawn)	active: 23.1 µM	–
NC(=O)C1CCN(c2ccc(S(=O)(=O)N3CCCCC3)cc2[N+](=O)[O-])CC1	inconclusive: 29.1 µM [falling, single point]	–
Cc1n[nH]c(C)c1S(=O)(=O)N(CC(=O)NCc1ccccc1Cl)c1ccc(C(C)C)cc1	inconclusive: 29.1 µM [falling, single point]	–
Cc1ccc(-n2nnnc2C2CCN(S(=O)(=O)c3ccc(OC(F)(F)F)cc3)CC2)cc1	–	inactive: 6.45%
CC(C)(C)c1ccc(C(=O)Nc2cccnc2)cc1	inconclusive: 1.03 µM [activator, partial curve]	–
CCOc1ccccc1CNC(=O)CCc1cn(Cc2ccc(Cl)cc2)c2ccccc12	inconclusive: 20.6 µM [falling, single point]	–
CC(=O)c1ccc(NC(=O)c2cnsn2)cc1	inconclusive: 0.82 µM [activator, full curve, poor fit]	–
CCN(C(=O)Cn1c(=O)oc2cc(S(=O)(=O)N3CCCC3)ccc21)c1cccc(C)c1	inconclusive: 18.4 µM [falling, single point]	–
Cc1ccc(S(=O)(=O)c2cc3c(=O)n4ccccc4nc3n(C)c2=N)cc1C	inconclusive: 25.9 µM [falling, partial curve, poor fit]	–

SMILES	Potency	activity change, negative = inhibition
NC(=O)Nc1n[nH]c(-c2ccccc2)n1	inconclusive: 23.1 µM [activator, partial curve, poor fit]	–
CC(C)Oc1ccc(CNC(=O)CCn2c(=O)c3cccn3c3ccc(F)cc32)cc1	–	inactive: -13%
CCN=C1S/C(=C\c2ccc(-c3cccc(C(=O)O)c3)o2)C(=O)N1CC	inconclusive: 9.2 µM [activator, partial curve, poor fit]	–
COc1ccc([N+](=O)[O-])cc1NCC(=O)Nc1cc(S(=O)(=O)N2CCCCC2)ccc1C	inconclusive: 18.4 µM [falling, single point]	–
Cc1c(C)n(Cc2ccccc2)c2ccc(C(=O)NCCc3ccccc3Cl)cc12	inconclusive: 13 µM [falling, partial curve, poor fit]	–
Cc1ccc(S(=O)(=O)N2CCC(C(=O)N[C@H](C(=O)NC3CCS(=O)(=O)C3)C(C)C)CC2)cc1 (stereo partly drawn)	inconclusive: 32.6 µM [activator, single point]	–
COc1ccc2[nH]c(=O)c(CN(Cc3ccccc3)Cc3nnnn3CC3CCCO3)cc2c1 (stereo not drawn)	inconclusive: 0.651 µM [falling, full curve, poor fit]	–
O=C1CC(c2nc(-c3cccc(Cl)c3)no2)CN1c1ccc2c(c1)OCCO2 (stereo not drawn)	inconclusive: 18.4 µM [falling, single point]	–
COc1ccc2nc3ccccc3nc2c1NC(=O)c1ccc(Cl)cc1	inconclusive: 16.4 µM [falling, partial curve, poor fit]	–
COc1ccccc1C(=O)Nc1ccc(S(=O)(=O)N2CCc3ccccc32)cc1	inconclusive: 2.06 µM [falling, partial curve]	–
Cn1c(SCC(=O)N2CCOCC2)nnc1-c1ccc2ncccc2c1	inconclusive: 13 µM [activator, partial curve, poor fit]	–
Cc1ccc(-c2nc(-c3cccnc3)sc2CC(=O)Nc2ccc(C)c(Cl)c2)cc1	inconclusive: 16.4 µM [falling, single point]	–
COc1ccccc1CCc1nnc(CCC(=O)NCCOc2cccnc2)o1	inconclusive: 9.2 µM [falling, partial curve, poor fit]	–
Cc1ccc(C)c(N2CCN(C(=O)CCS(=O)(=O)c3ccc4c(c3)CC(=O)N4C)CC2)c1	inconclusive: 16.4 µM [falling, single point]	–
CC(=O)Nc1cccc(NC(=O)/C=C/c2ccc(S(=O)(=O)N3CCOCC3)cc2)c1	inconclusive: 16.4 µM [falling, single point]	–
CCCCn1c(-c2cccc(Br)c2)nc2cc3[nH]c(=O)c(C(C)C)nc3cc21	inconclusive: 16.4 µM [falling, single point]	–
Cc1nn(C2CCS(=O)(=O)C2)c(Cl)c1/C=C/C(=O)OCC(=O)Nc1ccccc1[N+](=O)[O-] (stereo not drawn)	inconclusive: 6.51 µM [activator, single point]	–
COc1ccc(-c2csc(NC(=O)c3ccccc3S(C)(=O)=O)n2)cc1	active: 16.4 µM	–
CCOc1ccc2[nH]c3nc(SCC(=O)NC4CC4)nnc3c2c1	inconclusive: 32.6 µM [activator, partial curve, poor fit]	–
CCOc1ccc(CCNC(=O)c2c(C)oc3ncnc(N4CCOCC4)c23)cc1	–	inactive: 19.3%
Cc1cc(C)cc(NC(=O)CN(C)S(=O)(=O)c2ccc3[nH]c4c(c3c2)CCCC4)c1	–	inactive: -83.9%

Single records, from the list above.
NC(=O)Nc1n[nH]c(-c2ccccc2)n1 in the list: Potency: inconclusive: 23.1 µM [activator, partial curve, poor fit]
Cc1ccnc(NC(=O)CCC(=O)c2cccs2)c1 in the list: Potency: inconclusive: 11.6 µM [falling, single point]
CCOc1ccc(CN(C)C(=O)[C@H](Cc2ccccc2)NC(=O)OCc2ccccc2)cc1OC in the list: Potency: active: 20.6 µM
CCOc1ccccc1CNC(=O)CCc1cn(Cc2ccc(Cl)cc2)c2ccccc12 in the list: Potency: inconclusive: 20.6 µM [falling, single point]

Going on with the list:

SMILES	Potency	activity change, negative = inhibition
O=C(CNC(=O)c1ccc(Br)o1)Nc1cccc(-c2cnc3ccccc3n2)c1	inconclusive: 13 µM [falling, partial curve, poor fit]	–
CCCNC(=O)NC(=O)CN1CCCC1c1ccc2c(c1)OCCO2 (stereo not drawn)	inconclusive: 0.206 µM [activator, full curve, poor fit]	–
COc1ccc(CCNCC(=O)Nc2ccc(C)c(S(=O)(=O)N(C)C)c2)cc1	–	inactive: -29.5%
Cc1ccc(NC(=O)CN2C(=O)COc3ccc(S(=O)(=O)N4CCCCCC4)cc32)cc1C	inconclusive: 29.1 µM [falling, single point]	–
CC(=O)Nc1ccc(NC(=O)CCc2nc3sc4c(c3c(=O)[nH]2)CCCC4)cc1	–	inactive: 5.52%
COc1cc(/C=C(/C#N)c2ccc(C)cc2)ccc1Oc1ccc([N+](=O)[O-])cn1	active: 2.91 µM	–
Cc1cc(C)cc(NC(=O)CN2CCN(CCN=CC3=C(O)CC(C)(C)CC3=O)CC2)c1	inconclusive: 29.1 µM [activator, single point]	–
Cc1ccc(C)c(S(=O)(=O)N2CCN(C(=O)CNC(=O)c3ccc4ccccc4c3)CC2)c1	inconclusive: 20.6 µM [falling, partial curve]	–
Cc1noc2ncc(C(=O)c3cc(F)ccc3O)cc12	inconclusive: 23.1 µM [activator, single point]	–
Cc1onc(-c2c(F)cccc2Cl)c1C(=O)NCc1ccc2c(c1)OCO2	–	inactive: -6.02%
COc1ccc(-c2cc(C(F)(F)F)nc(SCCC(=O)Nc3cc(C)on3)n2)cc1	–	inactive: -10.8%
COc1cccc(C2CC(=O)Nc3c2c(=O)n(C)c2ncnn32)c1OC (stereo not drawn)	–	inactive: -18%
CC(C)c1ccc(CNc2ncccn2)cc1	inconclusive: 9.2 µM [activator, partial curve, poor fit]	–
CCOc1ccc(NS(=O)(=O)c2ccc3c(c2)CCN3C(C)=O)cc1	inconclusive: 4.11 µM [falling, full curve, poor fit]	–
COc1ccc(OCC(O)CNC(=O)c2sccc2Cl)cc1 (stereo not drawn)	inconclusive: 3.66 µM [falling, partial curve, poor fit]	–
COc1cccc(NC(=O)Nc2ccc3nsnc3c2)c1	inconclusive: 7.31 µM [activator, partial curve, poor fit]	–
S=C(Nc1ccccc1)Nc1nc2ccccc2n1CCOc1ccc(Cl)cc1	inconclusive: 29.1 µM [activator, single point]	–
COc1ccc(S(=O)(=O)Nc2ccc3c(c2)n(C)c(=O)n3C)cc1F	inconclusive: 18.4 µM [falling, single point]	–
CN(Cc1ccccc1)C(=O)CCC1CCN(C(=O)c2ccccc2C(F)(F)F)CC1	inconclusive: 14.6 µM [falling, partial curve]	–
CC(Oc1ccc(F)cc1)C(=O)Nc1cc(-c2ccc(F)c(F)c2)no1 (stereo not drawn)	inconclusive: 29.1 µM [falling, single point]	–
NC(=O)c1nsc(C(=O)N(c2ccccc2)C(C(=O)NCC2CCCO2)c2ccc(F)cc2)c1N (stereo not drawn)	inconclusive: 18.4 µM [activator, partial curve]	–

From PubChem BioAssay AID504444 (National Center for Advancing Translational Sciences (NCATS), 2011)
